Measurements reported in PubChem BioAssay AID1259424 (University of Nebraska Medical Center, 2018)
Here is an unselected part of about 14,000 deposited reagents. 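Higher correlation or smaller distance means closer resemblance to KSR1 loss; control wells, including KSR1 knockdowns, recur on many plates.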 Not given: the time to read-out.

- Screen: 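Find knockdowns that reproduce the expression shifts seen after KSR1 loss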 (primary screen)
- Cells: human HCT116 colon cancer cells
- Reagents: siRNA pool against human genes, 50 nM
- Detection: 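Log2 levels of six mRNAs (branched-DNA multiplex), adjusted by two reference genes and the non-targeting median, then scored against the average KSR1 knockdown pattern as Pearson r and euclidean distance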
- Scale: mean correlation with KSR1 profile and KSR1 correlation: higher = expression change more like KSR1 knockdown; mean distance from KSR1 profile: higher = expression change less like KSR1 knockdown

| gene | mean correlation with KSR1 profile | mean distance from KSR1 profile | KSR1 correlation, replicate 1 | KSR1 correlation, replicate 2 | KSR1 correlation, replicate 3 |
| --- | --- | --- | --- | --- | --- |
| USP37 | 0.122 | 1.11 | -0.0385 | -0.0405 | 0.671 |
| FARS2 | -0.507 | 1.85 | -0.34 | -0.595 | -0.419 |
| PDK1 | 0.613 | 1.77 | 0.689 | 0.642 | 0.303 |
| CASP6 | 0.512 | 1.19 | -0.377 | 0.8 | 0.425 |
| PNLIPRP2 | -0.0746 | 2.82 | 0.196 | 0.594 | -0.37 |
| BDNF | 0.186 | 2.75 | 0.168 | 0.21 | 0.156 |
| FES | -0.249 | 2.51 | 0.00753 | -0.343 | -0.388 |
| BIRC2 | -0.475 | 1.32 | -0.741 | -0.699 | -0.0675 |
| GJB3 | -0.397 | 1.82 | -0.395 | -0.36 | -0.408 |
| PACSIN1 | 0.0886 | 1.31 | 0.448 | 0.534 | -0.683 |
| VPREB3 | 0.2 | 3.03 | 0.11 | 0.273 | 0.104 |
| IFNA14 | 0.445 | 0.781 | 0.0353 | 0.12 | 0.754 |
| FPGT | -0.234 | 3.46 | -0.17 | -0.264 | -0.229 |
| GBP2 | 0.13 | 2.07 | 0.182 | 0.104 | 0.0027 |
| DUX3 | 0.716 | 1.67 | -0.164 | 0.86 | 0.72 |
| TP53I11 | -0.139 | 2.38 | -0.108 | -0.127 | -0.281 |
| HMBOX1 | -0.0722 | 2.03 | 0.15 | -0.292 | -0.0312 |
| ANO10 | -0.476 | 2.86 | -0.488 | -0.448 | -0.326 |
| SORCS2 | -0.018 | 2.37 | -0.00814 | -0.114 | -0.0713 |
| MANSC1 | 0.323 | 1.3 | -0.154 | 0.795 | 0.237 |
| ZNF426 | -0.513 | 1.75 | -0.58 | -0.764 | -0.432 |
| CAV3 | -0.216 | 1.88 | -0.112 | -0.161 | -0.346 |
| COL19A1 | -0.524 | 2.17 | -0.317 | -0.715 | -0.415 |
| PTPDC1 | -0.421 | 1.9 | -0.399 | -0.665 | -0.248 |
| BEST1 | -0.609 | 2.24 | -0.273 | -0.594 | -0.696 |
| CLCA2 | -0.0619 | 1.22 | 0.00324 | -0.278 | 0.136 |
| PDPK1 | 0.291 | 2.11 | 0.318 | 0.141 | 0.427 |
| JADE2 | -0.745 | 3.03 | -0.802 | -0.739 | -0.584 |
| RIMKLB | -0.727 | 1.42 | -0.595 | -0.595 | -0.96 |
| GPR82 | 0.805 | 1.08 | 0.803 | 0.795 | 0.702 |
| ASB3 | -0.526 | 2.83 | -0.452 | -0.211 | -0.381 |
| MLH3 | 0.082 | 1.84 | 0.148 | 0.12 | -0.257 |
| RPS6KC1 | -0.895 | 2.59 | -0.926 | -0.762 | -0.0681 |
| RTN4RL2 | -0.362 | 4.18 | -0.314 | -0.371 | -0.55 |

No new results follow: an excerpt of the list.
| gene | mean correlation with KSR1 profile | mean distance from KSR1 profile | KSR1 correlation, replicate 1 | KSR1 correlation, replicate 2 | KSR1 correlation, replicate 3 |
| --- | --- | --- | --- | --- | --- |
| BIRC2 | -0.475 | 1.32 | -0.741 | -0.699 | -0.0675 |
| GJB3 | -0.397 | 1.82 | -0.395 | -0.36 | -0.408 |
| PACSIN1 | 0.0886 | 1.31 | 0.448 | 0.534 | -0.683 |
